Experiment [1] addresses SH3b C3G domain fused to GST (UniProt Q13905). Briefly: pull-down; GST fusion protein on Glutathione Sepharose 4B beads incubated 2 h at 4 °C with lysates (1-2 mg protein) of HGF-treated cells; Western blot; only the target purified.
In experiment [2] the target is T1, Gab1 (mouse, mHCC1 cells) (mouse (endogenous in mHCC1)) (UniProt Q9QYY0).
T1 sequence: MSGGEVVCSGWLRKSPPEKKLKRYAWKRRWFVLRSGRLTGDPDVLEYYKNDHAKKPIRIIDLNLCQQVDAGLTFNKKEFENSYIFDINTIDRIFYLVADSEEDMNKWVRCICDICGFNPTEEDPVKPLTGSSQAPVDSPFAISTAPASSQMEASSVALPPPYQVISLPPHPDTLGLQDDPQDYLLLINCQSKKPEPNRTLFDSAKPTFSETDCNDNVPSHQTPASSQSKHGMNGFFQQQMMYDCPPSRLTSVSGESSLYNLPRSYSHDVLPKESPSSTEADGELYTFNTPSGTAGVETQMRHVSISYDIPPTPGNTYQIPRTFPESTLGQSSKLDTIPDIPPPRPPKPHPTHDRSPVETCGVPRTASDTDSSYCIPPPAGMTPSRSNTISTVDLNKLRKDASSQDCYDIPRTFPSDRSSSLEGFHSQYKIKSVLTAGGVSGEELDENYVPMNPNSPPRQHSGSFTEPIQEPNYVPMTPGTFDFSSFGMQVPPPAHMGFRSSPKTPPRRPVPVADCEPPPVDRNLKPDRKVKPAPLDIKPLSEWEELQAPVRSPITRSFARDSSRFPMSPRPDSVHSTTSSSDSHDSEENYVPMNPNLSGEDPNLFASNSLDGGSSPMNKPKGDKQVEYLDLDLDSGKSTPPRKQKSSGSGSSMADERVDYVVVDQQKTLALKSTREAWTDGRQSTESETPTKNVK
Briefly: co-IP; immunoprecipitation of MET, Gab1 or Abl from lysates of mouse Alb-R26^Met mHCC1 cells (control or shC3G); IP buffer 50 mM Tris-HCl pH 7.5, 150 mM NaCl, 1% NP40; Western blot of C3G, MET and P-MET (Y1234/Y1235). On the technique in general: A western blot detects proteins with antibodies after separation by electrophoresis.

The chains behind the UniProt entries cited, without tags or fusion partners. Where a name states a change or a piece, a line headed by the entry shows the natural chain unless it says otherwise.
UniProt P12830: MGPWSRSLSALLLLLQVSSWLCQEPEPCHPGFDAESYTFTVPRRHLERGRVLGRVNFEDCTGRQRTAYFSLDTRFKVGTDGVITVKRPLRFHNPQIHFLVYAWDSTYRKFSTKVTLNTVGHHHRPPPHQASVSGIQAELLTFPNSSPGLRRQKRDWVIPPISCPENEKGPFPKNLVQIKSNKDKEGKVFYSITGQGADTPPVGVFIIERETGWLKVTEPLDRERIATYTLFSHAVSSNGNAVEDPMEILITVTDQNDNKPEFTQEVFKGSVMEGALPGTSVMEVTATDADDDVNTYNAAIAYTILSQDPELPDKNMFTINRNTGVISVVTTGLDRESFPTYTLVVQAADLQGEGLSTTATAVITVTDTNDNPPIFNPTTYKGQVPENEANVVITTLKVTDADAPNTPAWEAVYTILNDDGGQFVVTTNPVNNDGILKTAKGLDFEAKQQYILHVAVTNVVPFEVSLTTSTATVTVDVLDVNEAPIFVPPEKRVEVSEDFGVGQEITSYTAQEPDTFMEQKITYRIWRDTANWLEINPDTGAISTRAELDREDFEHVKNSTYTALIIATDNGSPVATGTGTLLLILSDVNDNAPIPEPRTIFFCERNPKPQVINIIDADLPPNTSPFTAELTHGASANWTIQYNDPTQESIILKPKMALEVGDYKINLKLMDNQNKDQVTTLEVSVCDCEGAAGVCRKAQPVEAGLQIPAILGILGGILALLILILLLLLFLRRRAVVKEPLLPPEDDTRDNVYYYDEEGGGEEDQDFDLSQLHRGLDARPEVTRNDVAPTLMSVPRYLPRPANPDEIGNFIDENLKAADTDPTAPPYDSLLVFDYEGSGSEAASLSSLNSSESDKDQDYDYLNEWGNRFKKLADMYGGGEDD
UniProt P46109: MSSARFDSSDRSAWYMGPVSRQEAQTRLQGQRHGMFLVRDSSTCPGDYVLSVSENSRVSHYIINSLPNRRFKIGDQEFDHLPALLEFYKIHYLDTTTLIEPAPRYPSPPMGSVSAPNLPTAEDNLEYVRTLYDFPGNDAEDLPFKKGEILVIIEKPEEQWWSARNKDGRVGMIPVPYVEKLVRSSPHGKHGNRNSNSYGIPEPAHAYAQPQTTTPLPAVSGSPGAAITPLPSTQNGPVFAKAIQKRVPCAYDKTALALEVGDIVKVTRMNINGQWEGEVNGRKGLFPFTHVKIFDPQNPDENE

For experiment [3], the target named is C3G-binding E-cadherin domain fused to GST (UniProt P12830). Description: pull-down; as a3, lysates of cells not stimulated with HGF; only the target purified.
The target is the same in experiment [4]. Briefly: pull-down; GST fusion protein on Glutathione Sepharose 4B beads incubated 2 h at 4 °C with lysates (1-2 mg protein) of HGF-treated cells; Western blot; only the target purified.
In experiment [5] the target is GST bound to Crk SH3 domain. The experiment is described as above.

Results are given in words; binding and its absence hold for the method and conditions named. In cells and extracts the contact can be indirect. For part of these data: Binding calls can cover weak binding; strength is not graded here.

With CrkL (from UniProt P46109 1-303), in experiment [1], the binding result was “no binding”.

As for C3G (mouse, mHCC1 cells), the binding entry in experiment [2] is recorded as “binds”.

B1: C3G (Crk SH3-domain-binding guanine-nucleotide-releasing factor) (protein, UniProt Q13905 1-1077)
chain: MDTDSQRSHLSSFTMKLMDKFHSPKIKRTPSKKGKPAEVSVKIPEKPVNKEATDRFLPEGYPLPLDLEQQAVEFMSTSAVASRSQRQKNLSWLEEKEKEVVSALRYFKTIVDKMAIDKKVLEMLPGSASKVLEAILPLVQNDPRIQHSSALSSCYSRVYQSLANLIRWSDQVMLEGVNSEDKEMVTTVKGVIKAVLDGVKELVRLTIEKQGRPSPTSPVKPSSPASKPDGPAELPLTDREVEILNKTTGMSQSTELLPDATDEEVAPPKPPLPGIRVVDNSPPPALPPKKRQSAPSPTRVAVVAPMSRATSGSSLPVGINRQDFDVDCYAQRRLSGGSHSYGGESPRLSPCSSIGKLSKSDEQLSSLDRDSGQCSRNTSCETLDHYDPDYEFLQQDLSNADQIPQQTAWNLSPLPESLGESGSPFLGPPFQLPLGGHPQPDGPLAPGQQTDTPPALPEKKRRSAASQTADGSGCRVSYERHPSQYDNISGEDLQSTAPIPSVPYAPFAAILPFQHGGSSAPVEFVGDFTAPESTGDPEKPPPLPEKKNKHMLAYMQLLEDYSEPQPSMFYQTPQNEHIYQQKNKLLMEVYGFSDSFSGVDSVQELAPPPALPPKQRQLEPPAGKDGHPRDPSAVSGVPGKDSRDGSERAPKSPDALESAQSEEEVDELSLIDHNEIMSRLTLKQEGDDGPDVRGGSGDILLVHATETDRKDLVLYCEAFLTTYRTFISPEELIKKLQYRYEKFSPFADTFKKRVSKNTFFVLVRVVDELCLVELTEEILKLLMELVFRLVCNGELSLARVLRKNILDKVDQKKLLRCATSSQPLAARGVAARPGTLHDFHSHEIAEQLTLLDAELFYKIEIPEVLLWAKEQNEEKSPNLTQFTEHFNNMSYWVRSIIMLQEKAQDRERLLLKFIKIMKHLRKLNNFNSYLAILSALDSAPIRRLEWQKQTSEGLAEYCTLIDSSSSFRAYRAALSEVEPPCIPYLGLILQDLTFVHLGNPDYIDGKVNFSKRWQQFNILDSMRCFQQAHYDMRRNDDIINFFNDFSDHLAEEALWELSLKIKPRNITRRKTDREEKT
For B1, the binding entry in experiment [3] is “no binding (only without HGF stimulation)”; in experiment [4], “binds”.

B2: P-Gab1 (phosphorylated Gab1) (protein, UniProt Q13480 1-694)
chain: MSGGEVVCSGWLRKSPPEKKLKRYAWKRRWFVLRSGRLTGDPDVLEYYKNDHAKKPIRIIDLNLCQQVDAGLTFNKKEFENSYIFDINTIDRIFYLVADSEEEMNKWVRCICDICGFNPTEEDPVKPPGSSLQAPADLPLAINTAPPSTQADSSSATLPPPYQLINVPPHLETLGIQEDPQDYLLLINCQSKKPEPTRTHADSAKSTSSETDCNDNVPSHKNPASSQSKHGMNGFFQQQMIYDSPPSRAPSASVDSSLYNLPRSYSHDVLPKVSPSSTEADGELYVFNTPSGTSSVETQMRHVSISYDIPPTPGNTYQIPRTFPEGTLGQTSKLDTIPDIPPPRPPKPHPAHDRSPVETCSIPRTASDTDSSYCIPTAGMSPSRSNTISTVDLNKLRKDASSQDCYDIPRAFPSDRSSSLEGFHNHFKVKNVLTVGSVSSEELDENYVPMNPNSPPRQHSSSFTEPIQEANYVPMTPGTFDFSSFGMQVPPPAHMGFRSSPKTPPRRPVPVADCEPPPVDRNLKPDRKVKPAPLEIKPLPEWEELQAPVRSPITRSFARDSSRFPMSPRPDSVHSTTSSSDSHDSEENYVPMNPNLSSEDPNLFGSNSLDGGSSPMIKPKGDKQVEYLDLDLDSGKSTPPRKQKSSGSGSSVADERVDYVVVDQQKTLALKSTREAWTDGRQSTESETPAKSVK
modifications: phosphorylated (P-Gab1; site not given)
For B2, the binding result in experiment [5] and in experiment [1] was “binds” in each case.

The values above are taken from paper PMC7463771.
